Source: PubChem BioAssay AID540276 (National Center for Advancing Translational Sciences (NCATS), 2011)
Where “and” joins values, the source holds several entries; their conditions need not be identical. Equal entries are not always repeated. In all, about 300,000 compounds went through this assay and about 5,400 (1.8%) were called active. Inconclusive results, whose numbers are uncertain, are shown with a selection of clear calls. Calls follow the shape of the full dose curve; tested in HEK293 cells. Potencies beside an inconclusive call are fits to weak or partial responses and may not hold up. Some structures have more than one record in an assay (separate samples or runs), and their calls can disagree.
Potency is read from the fitted curve at half-maximal effect.

Assay: qHTS for inhibitors of binding or entry into cells for Marburg Virus
Conditions: Marburg virus pseudotyped entry inhibition, cell reporter; series mostly up to 37.8 µM
With `CCC(=O)c1ccc(OCC(=O)Nc2cc(S(=O)(=O)N3CCCCC3)ccc2N2CCN(CC)CC2)cc1` the Potency was inconclusive: 1.26 µM [activator, single point].
For `Cc1cc(Cl)c(S(=O)(=O)NC2CCCCC2)cc1OCC(=O)Nc1nncs1`, the Potency was inconclusive: 20 µM [inhibitor, single point].
In the case of `COc1ccc(N(Cc2ccccc2)S(=O)(=O)c2cccc(C(=O)Nc3ccccn3)c2)cc1`, the Potency was inconclusive: 35.5 µM [inhibitor, single point].
With `COc1ccccc1NC(=O)c1sc(NC(=O)c2ccco2)c(C#N)c1C` the Potency was inconclusive: 1.83 µM [inhibitor, partial curve, poor fit].
For `Clc1ccc(Cn2ncc3c(NCc4ccccc4)ncnc32)cc1`, the Potency was inconclusive: 5.01 µM [inhibitor, full curve].
In the case of `COc1ccc(OC)c(N2CC(O)(c3ccccc3)[N+]3=C2SCCC3)c1` (configuration not stated), the Potency was inconclusive: 12.6 µM [inhibitor, partial curve, poor fit].
With `CCc1ccc2[nH]c(=O)c(C(c3nnnn3CC3CCCO3)N3CCCc4ccccc43)cc2c1` (configuration not stated) the Potency was active: 9.2 µM.
With `O=C(NC(=S)Nc1ccc(S(=O)(=O)N2CCCC2)cc1)c1cccs1` the Potency was “inactive”.
With `CC(C)Oc1ccc(Br)cc1C(=O)N/N=C/c1c[nH]c2ccccc12` the Potency was inconclusive: 1.41 µM [inhibitor, single point].
For `CC1CCCN(Cc2c(O)ccc3c(=O)c(-c4ccccc4Cl)c(C(F)(F)F)oc23)C1` (configuration not stated), the Potency was inconclusive: 5.62 µM [inhibitor, single point].
In the case of `CCN(c1ccccc1)S(=O)(=O)c1cc(C(=O)Nc2cccc(Cl)c2)ccc1F`, the Potency was inconclusive: 14.1 µM [inhibitor, single point].
In the case of `O=C(C=Cc1ccco1)c1cc(Cl)ccc1O`, the Potency was “inactive”.
In the case of `CCn1c(SCC(=O)Nc2nccs2)nnc1-c1ccccn1`, the Potency was inconclusive: 0.501 µM [inhibitor, single point].
With `NC(=O)C1=CN(C2OC(COP(=O)(O)OP(=O)(O)OC[C@H]3O[C@@H](n4cnc5c(N)ncnc54)[C@H](OP(=O)(O)O)[C@H]3O)C(O)C2O)C=CC1` (some centres not stated) the Potency was “inactive”.
For `O=C(Nc1ccccc1-c1nnn(CC(=O)N2CCN(c3ccccc3)CC2)n1)c1cccs1`, the Potency was inconclusive: 18.3 µM [inhibitor, partial curve, poor fit].
In the case of `COc1cccc2c1C(=O)c1ccc3ccccc3c1C2=O`, the Potency was inconclusive: 8.91 µM [activator, partial curve, poor fit].
For `OCCN1CCN(C(=S)c2ccc(-c3ccccc3)cc2)CC1`, the Potency was inconclusive: 25.1 µM [inhibitor, single point].
With `CCCCSc1ccc2nc(-c3ccc(C#N)cc3)cn2c1` the Potency was “inactive”.
With `Cc1cc(C)nc(SCc2ccc(C(=O)NNC(=O)Nc3cccc(Cl)c3)cc2)n1` the Potency was inconclusive: 29.1 µM [inhibitor, single point].
In the case of `CCn1cc(CNC(=O)c2ccc(OC3CCN(Cc4ccccn4)CC3)cc2)cn1`, the Potency was “inactive”.
In the case of `COc1ccc(-n2sc3c(c2=S)-c2cc(OC)ccc2NC3(C)C)cc1`, the Potency was inconclusive: 11.2 µM [inhibitor, partial curve, poor fit].
In the case of `Cc1ccc(Nc2c(-c3ccc(N4CCOCC4)cc3)nc3ncccn23)c(C)c1`, the Potency was inconclusive: 35.5 µM [inhibitor, single point].
For `CCOc1ccc2nc(NC(=O)CN3CCOCC3)sc2c1`, the Potency was inconclusive: 3.16 µM [activator, full curve, poor fit].
For `COCCNC(=O)CCSc1nc(-c2ccc(OC)cc2)cc(C(F)(F)F)n1`, the Potency was inconclusive: 12.6 µM [activator, single point].
For `Cc1nc(COC(=O)c2c(C)nn(-c3ccccc3)c2C)cs1`, the Potency was “inactive”.
In the case of `CCOCCCN(C)C1CCN(C(=O)c2oc3ccccc3c2NC(=O)Cc2ccc(F)cc2)CC1`, the Potency was inconclusive: 35.5 µM [inhibitor, partial curve, poor fit].
With `COc1ccc2[nH]c(-c3ccccc3)cc2c1` the Potency was active: 8.91 µM.
For `Cc1nn(C(C)C(=O)Nc2cccc(F)c2)c(=O)c2c1sc1ccccc12` (configuration not stated), the Potency was “inactive”.
With `COC(=O)c1sc2ccccc2c1-n1cccc1C(=O)C(=O)Nc1ccc(OC)cc1` the Potency was inconclusive: 35.5 µM [activator, single point].
In the case of `COc1ccccc1C(=O)Nc1sc2c(c1C(=O)NCc1ccco1)CCCC2`, the Potency was inconclusive: 20 µM [inhibitor, partial curve, poor fit].
For `Nc1c2c(nc3ccn(Cc4ccccc4)c(=O)c13)CCC2`, the Potency was inconclusive: 1.26 µM [inhibitor, full curve, poor fit].
For `CC(C)N(C(=O)CSc1nn2c(=O)c(C(C)(C)C)nnc2s1)c1ccccc1`, the Potency was inconclusive: 6.31 µM [inhibitor, partial curve, poor fit].
With `COc1ccc(N2CCN(CCCNC(=O)C3CCC(CNc4nc(=S)[nH]c5ccccc45)CC3)CC2)cc1` (configuration not stated) the Potency was inconclusive: 1.78 µM [inhibitor, partial curve, poor fit].
In the case of `Cc1cc(C)c(NC(=O)Nc2sc3nc4n(c(=O)c3c2C)CCC(C)CC4)c(C)c1` (configuration not stated), the Potency was “inactive”.
With `COC(=O)c1nnc(N[C@@H](Cc2c[nH]c3ccccc23)C(=O)OC)nc1C(=O)OC` the Potency was inconclusive: 0.0422 µM [activator, partial curve, poor fit].
With `Cc1ccc(NC(NC(=O)c2cccnc2)C(Cl)(Cl)Cl)cc1` (configuration not stated) the Potency was active: 15.8 µM.
In the case of `CCOc1ccccc1/C=N/NC(=O)CNC(=O)COc1ccccc1`, the Potency was inconclusive: 2.24 µM [activator, full curve].
For `O=C(COc1ccccc1Cl)Nc1ccc2c(c1)OCCO2`, the Potency was inconclusive: 1.26 µM [activator, partial curve, poor fit].
For `COCCn1c(SCC(=O)N2CCCC2)nnc1-c1ccoc1C`, the Potency was “inactive”.
With `Cc1ccn2c(Nc3ccc(C(C)C)cc3)c(-c3ccsc3)nc2c1` the Potency was inconclusive: 31.6 µM [activator, single point].
For `O=C(CCc1ccccc1)NNC(=O)c1ccccc1Br`, the Potency was inconclusive: 3.16 µM [activator, single point].
In the case of `Cc1cc(NC(=O)c2ccc(Br)o2)ccc1NC(=O)c1ccco1`, the Potency was “inactive”.
With `Cc1ccnc2c1ccc1cccnc12` the Potency was inconclusive: 3.98 µM [inhibitor, full curve, poor fit].
With `CC(=O)Nc1ccc(C(=S)NCC2(N(C)C)CCCCC2)cc1` the Potency was inconclusive: 17.8 µM [inhibitor, single point].
With `CSc1nc(C(C)C)ccc1CNC(=O)CC(C)c1ccccc1` (configuration not stated) the Potency was inconclusive: 35.5 µM [inhibitor, single point].
With `CCOC(=O)c1ccc(-c2ccc(CO)o2)cc1` the Potency was inconclusive: 11.2 µM [inhibitor, partial curve].
In the case of `O=C(N/N=C/C=C/c1ccccc1)C1CC1c1ccccc1` (configuration not stated), the Potency was inconclusive: 25.9 µM [inhibitor, single point].
With `CCc1cc2c(=O)c(-c3ccc4c(c3)OCCO4)coc2cc1OS(C)(=O)=O` the Potency was active: 5.62 µM.
With `CCOC(=O)CC(=O)c1[nH]c(C)c(C(=O)OCC)c1C` the Potency was “inactive”.
In the case of `CCOc1ccc(S(=O)(=O)Nc2cccc(C(=O)NCC(c3ccccc3)N(C)C)c2)cc1` (configuration not stated), the Potency was inconclusive: 35.5 µM [inhibitor, single point].
For `O=C(OCC(=O)c1c[nH]c2ccccc12)c1cccc(S(=O)(=O)N2CCCCCC2)c1`, the Potency was inconclusive: 1.26 µM [inhibitor, single point].
In the case of `Cc1cc(=O)n(-c2ccc3ccccc3n2)[nH]1`, the Potency was “inactive”.
For `O=C(CCCCCn1c(=O)[nH]c2ccsc2c1=O)NCc1ccc(F)cc1`, the Potency was inconclusive: 0.251 µM [activator, full curve, poor fit].
With `CC(NS(=O)(=O)c1cn(C)c(=O)n(C)c1=O)c1ccccc1` (configuration not stated) the Potency was inconclusive: 1.26 µM [activator, single point].
For `CN(CC(=O)Nc1ccccc1Cl)C(=O)c1cc2c(s1)CCCCC2`, the Potency was “inactive”.
In the case of `COc1cccc(/C=C2\Oc3cc(OC(=O)N4CCOCC4)ccc3C2=O)c1`, the Potency was “inactive”.
With `CC(C)(C)c1ccc(OCC(=O)NNC(=O)C2CCCO2)cc1` (configuration not stated) the Potency was inconclusive: 5.62 µM [activator, single point].
With `CCc1ccc(N2CC(c3nc4ccccc4n3Cc3ccccc3C)CC2=O)cc1` (configuration not stated) the Potency was inconclusive: 3.16 µM [inhibitor, partial curve, poor fit].
With `CN1C(=O)N(C)C(=O)C2(Cc3c(ccc4ccccc34)N(C)C2)C1=O` the Potency was “inactive”.
In the case of `CCOc1ccc(NC(=O)NCCCN2CCCC2)cc1`, the Potency was inconclusive: 3.55 µM [inhibitor, partial curve, poor fit].
In the case of `CCn1cnc2cc(NCc3ccncc3)ccc21`, the Potency was “inactive”.
In the case of `Cc1cccc(NC(=O)CSCC(=O)Nc2cc(Cl)ccc2N2CCN(C)CC2)c1`, the Potency was inconclusive: 10 µM [inhibitor, partial curve].
In the case of `O=C(Cc1ccccc1)Nc1cccc(N2CCCC2)c1`, the Potency was “inactive”.
For `O=C(NCc1ccccc1)c1c[nH]c2cc3c(cc2c1=O)OCCO3`, the Potency was inconclusive: 2.31 µM [activator, partial curve].
For `COc1ccc(-c2noc(-c3ccc(NCc4ccco4)c([N+](=O)[O-])c3)n2)cc1OC`, the Potency was “inactive”.
For `C/C(N)=C(/C#N)C(=O)COC(=O)c1cc(-c2cccc(Br)c2)nc2ccccc12`, the Potency was inconclusive: 0.282 µM [activator, partial curve, poor fit].
